Experimental data: PubChem BioAssay AID743121 (NCATS, 2013)
Purpose: 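Partners whose loss is lethal together with topoisomerase I blockade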 (primary screen). Cell system: MDA-MB-231 cells, a human breast cancer line. Knock-down reagent: single siRNA against human genes, 20 nM siRNA (0.8 pmol per well). Timing: 120 h (drug added 48 h after transfection, read 72 h later). Treatment: camptothecin 20 nM (about EC30) for 72 h; vehicle 0.1% DMSO in parallel plates. Measurement: 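CellTiter-Glo ATP signal, scaled to control siRNA as percent viability; sensitisation given as log2 of untreated divided by camptothecin-treated viability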. Reading the numbers: log2 vehicle/camptothecin viability: higher = stronger sensitisation to camptothecin; viability with camptothecin and viability without drug: higher = more viable cells. Hit rule: 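Active genes have an RSA gene-level p-value below 0.001, computed from the ratios of their separate siRNAs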.
The deposit covers about 26,000 reagents; below is a random part of them. Of all reagents, 167 (0.63%) got an active call. 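Calls are per gene from RSA p-values that are not deposited; an individual active-marked siRNA can sensitise only weakly.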 Entries without a mark were called inactive. The numbers tell different reagents against one gene apart. Reagent sequences are not shown.

Gene | reagent | log2 vehicle/camptothecin viability | viability with camptothecin (% of control) | viability without drug (% of control)
ADAMTS7 | 1 | 0.157 | 66.7 | 74.4
ADAMTS7 | 2 | -0.345 | 82.9 | 65.2
ADAMTS7 | 3 | -0.408 | 34.2 | 25.8
CLDN14 | 1 | 0.121 | 33.8 | 36.7
CLDN14 | 2 | 0.234 | 23.1 | 27.1
CLDN14 | 3 | 0.141 | 7.66 | 8.44
CLDN14 | 4 | -0.19 | 73.2 | 64.2
TRAF1 | 1 | -0.148 | 101 | 91.2
TRAF1 | 2 | 0.152 | 91.7 | 102
TRAF1 | 3 | -0.36 | 16.7 | 13
TRAF1 | 4 | -0.211 | 50.9 | 44
HEXA | 1 | 0.62 | 38.3 | 58.8
HEXA | 2 | 0.137 | 88.6 | 97.4
HEXA | 3 | 0.96 | 20.5 | 40
OR11A1 | 1 | -0.329 | 99.6 | 79.2
OR11A1 | 2 | -0.411 | 82.1 | 61.7
OR11A1 | 3 | -0.559 | 63.9 | 43.4
OR11A1 | 4 | -0.595 | 44.3 | 29.4
NR1D2 | 1 | -0.112 | 68 | 63
NR1D2 | 2 | -0.23 | 117 | 99.9
NR1D2 | 3 | 0.198 | 71 | 81.5
NR1D2 | 4 | -0.191 | 51.6 | 45.2
TUBA4B | 1 | -0.565 | 45.3 | 30.7
TUBA4B | 2 | -0.214 | 90.2 | 77.8
TUBA4B | 3 | -0.167 | 59.4 | 52.9
TUBA4B | 4 | -0.628 | 57.9 | 37.5

The list goes on (5 carried over from the part before).
Gene | reagent | log2 vehicle/camptothecin viability | viability with camptothecin (% of control) | viability without drug (% of control)
NR1D2 | 4 | -0.191 | 51.6 | 45.2
TUBA4B | 1 | -0.565 | 45.3 | 30.7
TUBA4B | 2 | -0.214 | 90.2 | 77.8
TUBA4B | 3 | -0.167 | 59.4 | 52.9
TUBA4B | 4 | -0.628 | 57.9 | 37.5
CSMD3 | 1 | -0.203 | 105 | 91.5
CSMD3 | 2 | -0.411 | 103 | 77.4
CSMD3 | 3 | -0.18 | 105 | 92.2
ACADL | 1 | 0.0714 | 39.6 | 41.6
ACADL | 2 | -0.0914 | 88.1 | 82.7
ACADL | 3 | -0.198 | 90.4 | 78.8
ACADL | 4 | -0.153 | 53.1 | 47.7
RAB4B | 1 | -0.153 | 78.7 | 70.7
RAB4B | 2 | -0.13 | 31.8 | 29
RAB4B | 3 | 0.0762 | 19.8 | 20.9
RAB4B | 4 | -0.291 | 28.8 | 23.5
LRRN2 | 1 | -0.00583 | 84.2 | 83.9
LRRN2 | 2 | -0.427 | 55.3 | 41.1
LRRN2 | 3 | 0.0738 | 111 | 117
LRRN2 | 4 | 0.0222 | 68.3 | 69.4
THBS1 | 1 | -0.184 | 51.6 | 45.4
THBS1 | 2 | -0.51 | 60.2 | 42.3
THBS1 | 3 | -0.0913 | 45.2 | 42.4
THBS1 | 4 | -0.0535 | 93.4 | 90
RPL10 | 1 | 0.133 | 50.2 | 55
RPL10 | 2 | 0.00272 | 53.9 | 54
RPL10 | 3 | -0.107 | 114 | 105
RPL10 | 4 | -0.458 | 13.4 | 9.74
RPL10 | 5 | -0.925 | 37.8 | 19.9
RPL10 | 6 | -0.572 | 33.6 | 22.6
